Experimental data: PubChem BioAssay AID1224826 (NIAID, 2016)

Purpose: 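Regulators of Tlr4 signalling leading to Tnf-alpha expression in macrophages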 (primary screen)
System: RAW264.7 G9 macrophages from mouse bearing reporters for p65 (GFP) and the Tnf promoter (mCherry)
Reagent: siRNA pool against mouse genes, 100 nM
Duration: 16 h of LPS stimulation, after 2 days of siRNA transfection
Treatment: bacterial lipopolysaccharide (Salmonella minnesota R595), 10 ng/ml
Detection: 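Imaged Tnf reporter mCherry in nuclei, minus background, normalised per plate to the median and expressed as robust z-scores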
Scale: Tnf reporter robust z-score: higher = stronger Tnf promoter reporter signal after LPS; Tnf reporter intensity: higher = stronger Tnf promoter reporter signal
Call rule: 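a well counts as active at a score of -1.3 or below (Tlr4 knock-down control median) or above 3 (raised signal); controls and wells holding fewer than 50 cells are excluded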
Meaning of the calls: active = Tnf reporter clearly lowered or raised; inactive = no clear change in Tnf reporter
This is one part, drawn at random, of about 17,000 deposited reagents. About 1,110 of them (6.6%) were called active. 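Active means lowered or raised reporter signal; replicate intensities are raw and not normalised per plate.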

| gene | Tnf reporter robust z-score | fewer than 50 cells in well | Tnf reporter intensity, replicate 1 | Tnf reporter intensity, replicate 2 | outcome |
| --- | --- | --- | --- | --- | --- |
| Hrh1 (histamine receptor H1) | -0.08 | enough cells in well | 169 | 359 | inactive |
| Or9m1 (olfactory receptor family 9 subfamily M member 1) | 0.2 | enough cells in well | 201 | 160 | inactive |
| Cdx4 (caudal type homeobox 4) | -0.23 | enough cells in well | 272 | 148 | inactive |
| Tmem205 (transmembrane protein 205) | -1.21 | enough cells in well | 116 | 51.8 | inactive |
| Rab5b (RAB5B, member RAS oncogene family) | -0.6 | enough cells in well | 278 | 142 | inactive |
| Schip1 (schwannomin interacting protein 1) | 1.74 | enough cells in well | 197 | 209 | inactive |
| Ipo7 (importin 7) | -0.62 | enough cells in well | 150 | 147 | inactive |
| Top2a (topoisomerase (DNA) II alpha) | 0.62 | enough cells in well | 261 | 175 | inactive |
| Lemd2 (LEM domain containing 2) | 0.28 | enough cells in well | 230 | 222 | inactive |
| A430093F15Rik (RIKEN cDNA A430093F15 gene) | -1.1 | enough cells in well | 92.5 | 99.9 | inactive |
| Kcna4 | -0.76 | enough cells in well | 186 | 106 | inactive |
| Parp8 (poly (ADP-ribose) polymerase family, member 8) | 0.68 | enough cells in well | 238 | 205 | inactive |
| Mbl1 (mannose-binding lectin (protein A) 1) | 3.26 | enough cells in well | 420 | 290 | active |
| Plekha7 (pleckstrin homology domain containing A7) | 1.52 | enough cells in well | 248 | 244 | inactive |
| Eed (embryonic ectoderm development) | 0.31 | enough cells in well | 249 | 259 | inactive |
| Usp39 (ubiquitin specific peptidase 39) | 1.29 | enough cells in well | 187 | 114 | inactive |
| Abo | 0.18 | enough cells in well | 220 | 197 | inactive |
| Foxp4 (forkhead box P4) | 0.45 | enough cells in well | 265 | 171 | inactive |
| Nostrin (nitric oxide synthase trafficker) | 0 | enough cells in well | 193 | 144 | inactive |
| Muc6 (mucin 6, gastric) | -0.61 | enough cells in well | 134 | 109 | inactive |
| Lypd1 (Ly6/Plaur domain containing 1) | -1.16 | enough cells in well | 156 | 47.7 | inactive |
| Sf3b3 (splicing factor 3b, subunit 3) | -1.49 | enough cells in well | 23.8 | 71.5 | active |
| Cdk4 (cyclin dependent kinase 4) | 1.05 | enough cells in well | 264 | 214 | inactive |
| Or5aq6 (olfactory receptor family 5 subfamily AQ member 6) | 0.3 | enough cells in well | 195 | 175 | inactive |

Next part; the last 4 above are carried over.
| gene | Tnf reporter robust z-score | fewer than 50 cells in well | Tnf reporter intensity, replicate 1 | Tnf reporter intensity, replicate 2 | outcome |
| --- | --- | --- | --- | --- | --- |
| Lypd1 (Ly6/Plaur domain containing 1) | -1.16 | enough cells in well | 156 | 47.7 | inactive |
| Sf3b3 (splicing factor 3b, subunit 3) | -1.49 | enough cells in well | 23.8 | 71.5 | active |
| Cdk4 (cyclin dependent kinase 4) | 1.05 | enough cells in well | 264 | 214 | inactive |
| Or5aq6 (olfactory receptor family 5 subfamily AQ member 6) | 0.3 | enough cells in well | 195 | 175 | inactive |
| Nacc2 | -0.17 | enough cells in well | 0 | 154 | inactive |
| Slc48a1 | – | fewer than 50 cells per well; well left out of calls | 182 | 30.2 | inactive |
| Reg3a (regenerating islet-derived 3 alpha) | 3.46 | enough cells in well | 230 | 325 | active |
| Acnat2 (acyl-coenzyme A amino acid N-acyltransferase 2) | 0.17 | enough cells in well | 165 | 198 | inactive |
| Kcnip1 (Kv channel-interacting protein 1) | 0.26 | enough cells in well | 206 | 145 | inactive |
| Kitl (kit ligand) | -0.68 | enough cells in well | 203 | 102 | inactive |
| Smim10l2a (small integral membrane protein 10 like 2A) | 0.73 | enough cells in well | 222 | 182 | inactive |
| Speer4a1 (spermatogenesis associated glutamate (E)-rich protein 4A1) | – | fewer than 50 cells per well; well left out of calls | 41.6 | 34.4 | inactive |
| Fam3c (FAM3 metabolism regulating signaling molecule C) | -0.76 | enough cells in well | 168 | 97 | inactive |
| 9530091C08Rik (RIKEN cDNA 9530091C08 gene) | 0.44 | enough cells in well | 200 | 223 | inactive |
| Commd7 (COMM domain containing 7) | 0.94 | enough cells in well | 258 | 217 | inactive |
| 1110004F10Rik (RIKEN cDNA 1110004F10 gene) | 1.34 | enough cells in well | 404 | 128 | inactive |
| Gm10128 (predicted gene 10128) | 0.58 | enough cells in well | 183 | 90.9 | inactive |
| Dok2 (docking protein 2) | -0.54 | enough cells in well | 202 | 157 | inactive |
| Tnnc1 (troponin C, cardiac/slow skeletal) | -0.5 | enough cells in well | 219 | 95.2 | inactive |
| Mcrs1 (microspherule protein 1) | -0.77 | enough cells in well | 154 | 97.1 | inactive |
